PubChem BioAssay AID1508588, Peter MacCallum Cancer Centre | 2020
Test: 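Genome-wide search for knock-downs that heighten vemurafenib action in melanoma cells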 (primary screen). Cells: human WM266.4 melanoma cells (BRAF V600 mutant). Reagent: siRNA pool against human genes, 40 nM. Duration: 96 h from transfection to read-out. Challenge: vemurafenib 300 nM (about IC25), added 48 h after transfection, for 48 h; comparison arm got DMSO vehicle only. Read-out: 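Cell gain (DAPI nuclei at end minus before drug, mean of two replicates) and medium lactate by absorbance per cell, both as ratio to non-targeting siRNA, also grouped into fold-change classes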. Direction: cell gain with vemurafenib: higher = more cell gain than with non-targeting siRNA; lactate per cell with vemurafenib: higher = more lactate made per cell. Call rule: 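Enhancement is called by pairing each knock-down's vehicle-arm and drug-arm fold-change classes for viability or glycolysis; which class combinations qualify is not given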. Meaning of the calls: active = enhances vemurafenib effect; inactive = no enhancement seen.
The whole screen tested about 18,000 reagents; shown is an unselected part. 790 of them (4.4%) were called active. 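Calls rest on a combination of fold-change classes in drug and vehicle arms, not all shown here.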 A reagent listed more than once was tested more than once; the source does not tell the runs apart. No sequences are given here.

| target gene | cell gain with vemurafenib | lactate per cell with vemurafenib | activity call |
| --- | --- | --- | --- |
| LUM | 0.52 | 0.84 | inactive |
| INKA1 | 0.31 | 1.04 | inactive |
| CCDC181 | 1.06 | 0.68 | inactive |
| XRCC2 | 0.97 | 0.2 | inactive |
| HSF1 | 0.22 | 0.14 | active |
| MAN1A1 | 0.94 | 0.6 | inactive |
| KCTD1 | 0.24 | 1.29 | inactive |
| GPR179 | 0.7 | 1.28 | inactive |
| HSD3B1 | 0.87 | 0.64 | inactive |
| FBXL19 | 0.47 | 1.44 | inactive |
| EFL1 | 0.72 | 0.59 | inactive |
| SIGMAR1 | 0.27 | 1.04 | inactive |
| NR1I2 | 0.42 | 0.6 | inactive |
| CCNJL | 0.22 | 2.12 | inactive |
| PGC | 0.56 | 1.65 | inactive |
| C1QC | 0.13 | 0.87 | inactive |
| KRT6C | 0.55 | 1.42 | inactive |
| PKIB | 0.37 | 1.88 | inactive |
| TSPAN1 | 0.5 | 1.44 | inactive |
| DNAH5 | 0.72 | 0.57 | inactive |
| TNFSF12 | 0.63 | 0.58 | inactive |
| PCMTD1 | 0.7 | 0.74 | inactive |
| PTPN2 | 1.07 | 0.62 | inactive |
| OR9G9 | 0.95 | 0.74 | inactive |
| CLOCK | 0.82 | 1.08 | inactive |
| OR5H1 | 0.51 | 0.59 | inactive |
| ZNF160 | 0.27 | 0.87 | inactive |
| SLC2A4RG | 0.33 | 1.14 | inactive |
| UNK | 0.65 | 0.98 | inactive |
| THEM4 | 1.04 | 0.59 | inactive |
| MLX | 0.4 | 0.8 | inactive |
| ADAM8 | 0.2 | 1.57 | inactive |
| MIDEAS | 0.3 | 2.14 | inactive |
| UGT2B4 | 0.2 | 2.02 | inactive |
| TFAP2C | 0.6 | 1.54 | inactive |
| FBXL7 | 1.2 | 0.78 | inactive |
| DIS3L2 | 0.79 | 0.87 | inactive |
| TMEM87A | 0.53 | 0.24 | inactive |
| XKR4 | 0.5 | 0.8 | inactive |
| LCNL1 | 0.25 | 1.75 | inactive |
| SH3TC2 | 0.15 | 2.17 | inactive |
| GAGE4 | 0.74 | 0.86 | inactive |
| CDK17 | 0.99 | 0.74 | inactive |
| AMPD3 | 0.78 | 0.64 | inactive |
| PRKCB | 0.54 | 0.76 | inactive |
| MLLT1 | 0.61 | 1.19 | inactive |
| USP21 | 0.18 | 0.4 | inactive |
| SARDH | 0.88 | 0.77 | inactive |
| ECHDC2 | 1.05 | 0.7 | inactive |
| HOXC8 | 0.82 | 0.38 | inactive |
| LRSAM1 | 1.17 | 0.82 | inactive |
| CASP5 | 0.46 | 0.77 | inactive |
| OCIAD2 | 0.7 | 0.73 | inactive |
| STARD5 | 0.26 | 0.34 | active |
| MLPH | 0.71 | 0.44 | inactive |
| LIG4 | 0.61 | 0.61 | inactive |
| ATP5PF | 0.34 | 0.88 | inactive |
| TRPM6 | 0.77 | 0.43 | inactive |
| TRPM6 | 0.49 | 0.78 | inactive |
| LYRM4 | 0.91 | 0.66 | inactive |
| ARMCX1 | 0.85 | 0.65 | inactive |
| APOC1 | 0.81 | 0.77 | inactive |
| PHF13 | 1.04 | 0.64 | inactive |
| B3GALT4 | 0.4 | 1.32 | inactive |
| GAS1 | 0.42 | 1.39 | inactive |
| APEX2 | 0.23 | 2.06 | inactive |
| DEPDC7 | 0.79 | 0.75 | inactive |
| ST7 | 0.21 | 0.29 | inactive |
| NPFFR1 | 0.73 | 1.05 | inactive |
| ANXA2R | 1.07 | 0.57 | inactive |
| ATP11B | 0.62 | 0.59 | inactive |
| ATP5MC3 | 0.52 | 0.6 | inactive |
| HTRA3 | 0.16 | 1.39 | inactive |
| SEC23A | 0.71 | 1 | inactive |
| FOXK1 | 0.72 | 1.75 | inactive |
| SMG6 | 0.5 | 0.04 | active |
| CAV3 | 0.73 | 0.88 | inactive |
| CDK11A | 0.17 | 1.88 | inactive |
| HLTF | 0.37 | 1.36 | inactive |
| TMEM35A | 1.03 | 0.8 | inactive |
| ETFB | 0.59 | 0.59 | inactive |
| HMGA1 | 0.55 | 0.44 | inactive |
| TNFSF12-TNFSF13 | 1.31 | 0.45 | inactive |
| CLIP1 | 0.67 | 0.71 | inactive |

Sorted by “lactate per cell with vemurafenib” (low to high): 8 of the entries above.
| target gene | cell gain with vemurafenib | lactate per cell with vemurafenib | activity call |
| --- | --- | --- | --- |
| EFL1 | 0.72 | 0.59 | inactive |
| NR1I2 | 0.42 | 0.6 | inactive |
| HSD3B1 | 0.87 | 0.64 | inactive |
| SIGMAR1 | 0.27 | 1.04 | inactive |
| GPR179 | 0.7 | 1.28 | inactive |
| KCTD1 | 0.24 | 1.29 | inactive |
| FBXL19 | 0.47 | 1.44 | inactive |
| CCNJL | 0.22 | 2.12 | inactive |
